# This is one part of the list.
# B1: KCR (Mus musculus), P70194 (protein)
# chain: MKEAELNRDMARYCTDNQCVSLQPQGLGPKSAALMAPRTLRHVQVILALMVVTVIFSLLALFVVASQPWRPEWNKEPPSLLLRGSNNSGHDNHSQFVRETEMQVAIQRLRDYEENSSSCHKEVQILKYQMDNVSSLVQLLGSHLEDVNADILQTKDVLKESGALALETQALRSSLEVASADIHSLRGDLEKANAMTSQTRGLLKSSTENTSAELHVLGRGLEEAQSEIQALRGSLQSANDLSSQTQGFLQHSMDNISAQIQTVRDGMERAGEKMNSLKKELETLTAQTQKANGHLEQTDAQIQGLKAELKSTSSLNSRIEVVNGQMKDASRELQTLRRDLSDVSALKSNVQMLQSNLQRAKTEMQTLKADLQATKALTAKIQGEQNRLGALQEAVAAQKQEQKTQNQVLQLIAQNWKYFNGNFYYFSRDKKPWREAEKFCTSQGAHLASVTSQEEQAFLVQTTSSGDHWIGLTDQGTEGIWRWVDGTPFNNAQSKGFWGKNQPDNWRHRNGEREDCVHVRQQWNDMACGSSYPWVCKKSTGWSAARVG
# What was measured:
# Test in all cases: glycan array binding signal (z-score within array); higher = stronger binding
# Settings in all cases: glycan notation: IUPAC condensed, linker removed
# [1] = molecular target: Gal(b1-4)GlcNAc(b1-6)GalNAc
# Summary of the method: (§1)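 Glycan array binding is given as a within-array Z-score, which can be read as non-binding when negative. The arrays, 3228 of them, came from the Consortium for Functional Glycomics database and were retained only where the protein sequence was available. Z-scores were averaged across arrays of the same protein sequence at different concentrations or buffers and across linkers.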
# [2] = molecular target: Gal(b1-4)GlcNAc(b1-6)[Gal(b1-3)]GalNAc
# Summary of the method: as §1
# [3] = molecular target: Gal(b1-4)GlcNAc(b1-6)[Gal(b1-3)]GlcNAc
# Summary of the method: as §1
# [4] = molecular target: Gal3S(b1-3)GalNAc
# Summary of the method: as §1
# [5] = molecular target: Gal3S(b1-3)GlcNAc
# Summary of the method: as §1
# [6] = molecular target: Gal3S(b1-3)[Fuc(a1-4)]GlcNAc
# Summary of the method: as §1
# [7] = molecular target: Gal3S(b1-4)Glc
# Summary of the method: as §1
# [8] = molecular target: Gal3S(b1-4)Glc6S
# Summary of the method: as §1
# [9] = molecular target: Gal3S(b1-4)GlcNAc
# Summary of the method: as §1
# [10] = molecular target: Gal3S(b1-4)GlcNAc6S
# Summary of the method: as §1
# [11] = molecular target: Gal3S6S(b1-4)GlcNAc
# Summary of the method: as §1
# [12] = molecular target: Gal3S6S(b1-4)GlcNAc6S
# Summary of the method: as §1
# [13] = molecular target: Gal4S(b1-4)GlcNAc
# Summary of the method: as §1
# [14] = molecular target: Gal4S6S(b1-4)GlcNAc
# Summary of the method: as §1
# [15] = molecular target: Gal6S(b1-4)Glc
# Summary of the method: as §1
# [16] = molecular target: Gal6S(b1-4)Glc6S
# Summary of the method: as §1
# [17] = molecular target: Gal6S(b1-4)GlcNAc
# Summary of the method: as §1
# [18] = molecular target: GalNAc(a1-3)Gal
# Summary of the method: as §1
# [19] = molecular target: GalNAc(a1-3)GalNAc
# Summary of the method: as §1
# [20] = molecular target: GalNAc(b1-3)Gal(a1-4)Gal(b1-4)GlcNAc
# Summary of the method: as §1
# [21] = molecular target: GalNAc(b1-4)GlcNAc
# Summary of the method: as §1
# [22] = molecular target: Glc(a1-4)Glc
# Summary of the method: as §1
# [23] = molecular target: Glc(a1-6)Glc(a1-6)Glc
# Summary of the method: as §1
# [24] = molecular target: Glc(b1-4)Glc
# Summary of the method: as §1
# [25] = molecular target: Glc(b1-6)Glc
# Summary of the method: as §1
# [26] = molecular target: GlcA(b1-3)Gal
# Summary of the method: as §1
# [27] = molecular target: GlcA(b1-6)Gal
# Summary of the method: as §1
# [28] = molecular target: GlcNAc(a1-3)Gal(b1-4)GlcNAc
# Summary of the method: as §1
# [29] = molecular target: GlcNAc(a1-6)Gal(b1-4)GlcNAc
# Summary of the method: as §1
# [30] = molecular target: GlcNAc(b1-2)Gal(b1-3)GlcNAc
# Summary of the method: as §1
# [31] = molecular target: GlcNAc(b1-2)Man(a1-3)[GlcNAc(b1-2)Man(a1-6)]Man(b1-4)GlcNAc(b1-4)GlcNAc
# Summary of the method: as §1
# [32] = molecular target: GlcNAc(b1-3)Gal
# Summary of the method: as §1
# [33] = molecular target: GlcNAc(b1-3)Gal(b1-3)GalNAc
# Summary of the method: as §1
# [34] = molecular target: GlcNAc(b1-3)Gal(b1-4)Glc
# Summary of the method: as §1
# [35] = molecular target: GlcNAc(b1-3)Gal(b1-4)GlcNAc
# Summary of the method: as §1
# [36] = molecular target: GlcNAc(b1-3)Gal(b1-4)GlcNAc(b1-3)Gal(b1-4)GlcNAc
# Summary of the method: as §1
# [37] = molecular target: GlcNAc(b1-3)GalNAc
# Summary of the method: as §1
# [38] = molecular target: GlcNAc(b1-3)[GlcNAc(b1-4)][GlcNAc(b1-6)]GlcNAc
# Summary of the method: as §1
# [39] = molecular target: GlcNAc(b1-3)[GlcNAc(b1-6)]Gal(b1-4)GlcNAc
# Summary of the method: as §1
# [40] = molecular target: GlcNAc(b1-3)[GlcNAc(b1-6)]GlcNAc
# Summary of the method: as §1
# [41] = molecular target: GlcNAc(b1-4)Gal(b1-4)GlcNAc
# Summary of the method: as §1
# [42] = molecular target: GlcNAc(b1-4)GlcNAc(b1-4)GlcNAc
# Summary of the method: as §1
# [43] = molecular target: GlcNAc(b1-4)GlcNAc(b1-4)GlcNAc(b1-4)GlcNAc(b1-4)GlcNAc
# Summary of the method: as §1
# [44] = molecular target: GlcNAc(b1-4)GlcNAc(b1-4)GlcNAc(b1-4)GlcNAc(b1-4)GlcNAc(b1-4)GlcNAc
# Summary of the method: as §1
# [45] = molecular target: GlcNAc(b1-4)[GlcNAc(b1-6)]GalNAc
# Summary of the method: as §1
# [46] = molecular target: GlcNAc(b1-6)Gal(b1-4)GlcNAc
# Summary of the method: as §1
# [47] = molecular target: GlcNAc(b1-6)GalNAc
# Summary of the method: as §1
# [48] = molecular target: Kdn(a2-3)Gal(b1-3)GlcNAc
# Summary of the method: as §1
# [49] = molecular target: Kdn(a2-3)Gal(b1-4)GlcNAc
# Summary of the method: as §1
# [50] = molecular target: Man(a1-2)Man(a1-2)Man(a1-3)Man
# Summary of the method: as §1
# [51] = molecular target: Man(a1-2)Man(a1-2)Man(a1-3)[Man(a1-2)Man(a1-3)[Man(a1-2)Man(a1-6)]Man(a1-6)]Man(b1-4)GlcNAc(b1-4)GlcNAc
# Summary of the method: as §1
# [52] = molecular target: Man(a1-2)Man(a1-2)Man(a1-3)[Man(a1-2)Man(a1-6)[Man(a1-3)]Man(a1-6)]Man(b1-4)GlcNAc(b1-4)GlcNAc
# Summary of the method: as §1
# [53] = molecular target: Man(a1-2)Man(a1-2)Man(a1-6)[Man(a1-3)]Man
# Summary of the method: as §1
# [54] = molecular target: Man(a1-2)Man(a1-3)Man
# Summary of the method: as §1
# [55] = molecular target: Man(a1-2)Man(a1-3)[Man(a1-2)Man(a1-6)]Man
# Summary of the method: as §1
# [56] = molecular target: Man(a1-2)Man(a1-3)[Man(a1-3)[Man(a1-6)]Man(a1-6)]Man(b1-4)GlcNAc(b1-4)GlcNAc
# Summary of the method: as §1
# [57] = molecular target: Man(a1-2)Man(a1-3)[Man(a1-6)]Man(a1-6)[Man(a1-2)Man(a1-3)]Man(b1-4)GlcNAc(b1-4)GlcNAc
# Summary of the method: as §1
# [58] = molecular target: Man(a1-3)[Man(a1-6)]Man
# Summary of the method: as §1
binder,measurement,setting,value
B1,glycan array binding signal (z-score),[1],0.734
same,glycan array binding signal (z-score),[2],0.017
same,glycan array binding signal (z-score),[3],-0.129
same,glycan array binding signal (z-score),[4],-0.429
same,glycan array binding signal (z-score),[5],0.069
same,glycan array binding signal (z-score),[6],0.43
same,glycan array binding signal (z-score),[7],0.71
same,glycan array binding signal (z-score),[8],1.12
same,glycan array binding signal (z-score),[9],-0.178
same,glycan array binding signal (z-score),[10],0.95
same,glycan array binding signal (z-score),[11],0.47
same,glycan array binding signal (z-score),[12],2.21
same,glycan array binding signal (z-score),[13],0.174
same,glycan array binding signal (z-score),[14],0.473
same,glycan array binding signal (z-score),[15],1.07
same,glycan array binding signal (z-score),[16],2.48
same,glycan array binding signal (z-score),[17],0.769
same,glycan array binding signal (z-score),[18],0.172
same,glycan array binding signal (z-score),[19],0.543
same,glycan array binding signal (z-score),[20],0.243
same,glycan array binding signal (z-score),[21],0.041
same,glycan array binding signal (z-score),[22],-0.669
same,glycan array binding signal (z-score),[23],-0.706
same,glycan array binding signal (z-score),[24],-0.367
same,glycan array binding signal (z-score),[25],-0.566
same,glycan array binding signal (z-score),[26],-0.071
same,glycan array binding signal (z-score),[27],1.36
same,glycan array binding signal (z-score),[28],-0.828
same,glycan array binding signal (z-score),[29],2.47
same,glycan array binding signal (z-score),[30],-0.911
same,glycan array binding signal (z-score),[31],-0.569
same,glycan array binding signal (z-score),[32],-0.711
same,glycan array binding signal (z-score),[33],-0.821
same,glycan array binding signal (z-score),[34],-0.818
same,glycan array binding signal (z-score),[35],-0.541
same,glycan array binding signal (z-score),[36],-0.465
same,glycan array binding signal (z-score),[37],-0.944
same,glycan array binding signal (z-score),[38],-0.825
same,glycan array binding signal (z-score),[39],-0.831
same,glycan array binding signal (z-score),[40],-0.721
same,glycan array binding signal (z-score),[41],-0.82
same,glycan array binding signal (z-score),[42],0.241
same,glycan array binding signal (z-score),[43],-0.223
same,glycan array binding signal (z-score),[44],-0.416
same,glycan array binding signal (z-score),[45],-0.917
same,glycan array binding signal (z-score),[46],-0.61
same,glycan array binding signal (z-score),[47],-0.376
same,glycan array binding signal (z-score),[48],-0.594
same,glycan array binding signal (z-score),[49],-0.623
same,glycan array binding signal (z-score),[50],-0.463
same,glycan array binding signal (z-score),[51],-0.71
same,glycan array binding signal (z-score),[52],-0.336
same,glycan array binding signal (z-score),[53],-0.473
same,glycan array binding signal (z-score),[54],-0.608
same,glycan array binding signal (z-score),[55],-0.817
same,glycan array binding signal (z-score),[56],-0.289
same,glycan array binding signal (z-score),[57],-0.655
same,glycan array binding signal (z-score),[58],-0.663

# Looked up one by one from the entries so far (2):
binder,measurement,setting,value
B1,glycan array binding signal (z-score),[27],1.36
same,glycan array binding signal (z-score),[23],-0.706
